These are yes or no findings as the source states them, for the method shown. Binding seen in cells or lysates may run through a third protein. Some binding calls cover weakened binding; strength is not graded here.
Target: thyroid hormone receptor interactor protein 12 (TRIP12), endogenous (human (endogenous in HCT116 and HEK293T)) (UniProt Q14669)
Test: co-IP; IP of endogenous TRIP12 with the antibody used for proteomics from HEK293T lysates, Western blot

Chains of the proteins cited; added tags and fusions are not shown. Lines headed by an entry give the natural chain unless they say otherwise; changes in a name come on top. A line that says so, or that is headed by a name, gives the form on record, which may keep a tag or linker.
thyroid hormone receptor interactor protein 12 (TRIP12), endogenous (human (endogenous in HCT116 and HEK293T)) (Q14669, form named): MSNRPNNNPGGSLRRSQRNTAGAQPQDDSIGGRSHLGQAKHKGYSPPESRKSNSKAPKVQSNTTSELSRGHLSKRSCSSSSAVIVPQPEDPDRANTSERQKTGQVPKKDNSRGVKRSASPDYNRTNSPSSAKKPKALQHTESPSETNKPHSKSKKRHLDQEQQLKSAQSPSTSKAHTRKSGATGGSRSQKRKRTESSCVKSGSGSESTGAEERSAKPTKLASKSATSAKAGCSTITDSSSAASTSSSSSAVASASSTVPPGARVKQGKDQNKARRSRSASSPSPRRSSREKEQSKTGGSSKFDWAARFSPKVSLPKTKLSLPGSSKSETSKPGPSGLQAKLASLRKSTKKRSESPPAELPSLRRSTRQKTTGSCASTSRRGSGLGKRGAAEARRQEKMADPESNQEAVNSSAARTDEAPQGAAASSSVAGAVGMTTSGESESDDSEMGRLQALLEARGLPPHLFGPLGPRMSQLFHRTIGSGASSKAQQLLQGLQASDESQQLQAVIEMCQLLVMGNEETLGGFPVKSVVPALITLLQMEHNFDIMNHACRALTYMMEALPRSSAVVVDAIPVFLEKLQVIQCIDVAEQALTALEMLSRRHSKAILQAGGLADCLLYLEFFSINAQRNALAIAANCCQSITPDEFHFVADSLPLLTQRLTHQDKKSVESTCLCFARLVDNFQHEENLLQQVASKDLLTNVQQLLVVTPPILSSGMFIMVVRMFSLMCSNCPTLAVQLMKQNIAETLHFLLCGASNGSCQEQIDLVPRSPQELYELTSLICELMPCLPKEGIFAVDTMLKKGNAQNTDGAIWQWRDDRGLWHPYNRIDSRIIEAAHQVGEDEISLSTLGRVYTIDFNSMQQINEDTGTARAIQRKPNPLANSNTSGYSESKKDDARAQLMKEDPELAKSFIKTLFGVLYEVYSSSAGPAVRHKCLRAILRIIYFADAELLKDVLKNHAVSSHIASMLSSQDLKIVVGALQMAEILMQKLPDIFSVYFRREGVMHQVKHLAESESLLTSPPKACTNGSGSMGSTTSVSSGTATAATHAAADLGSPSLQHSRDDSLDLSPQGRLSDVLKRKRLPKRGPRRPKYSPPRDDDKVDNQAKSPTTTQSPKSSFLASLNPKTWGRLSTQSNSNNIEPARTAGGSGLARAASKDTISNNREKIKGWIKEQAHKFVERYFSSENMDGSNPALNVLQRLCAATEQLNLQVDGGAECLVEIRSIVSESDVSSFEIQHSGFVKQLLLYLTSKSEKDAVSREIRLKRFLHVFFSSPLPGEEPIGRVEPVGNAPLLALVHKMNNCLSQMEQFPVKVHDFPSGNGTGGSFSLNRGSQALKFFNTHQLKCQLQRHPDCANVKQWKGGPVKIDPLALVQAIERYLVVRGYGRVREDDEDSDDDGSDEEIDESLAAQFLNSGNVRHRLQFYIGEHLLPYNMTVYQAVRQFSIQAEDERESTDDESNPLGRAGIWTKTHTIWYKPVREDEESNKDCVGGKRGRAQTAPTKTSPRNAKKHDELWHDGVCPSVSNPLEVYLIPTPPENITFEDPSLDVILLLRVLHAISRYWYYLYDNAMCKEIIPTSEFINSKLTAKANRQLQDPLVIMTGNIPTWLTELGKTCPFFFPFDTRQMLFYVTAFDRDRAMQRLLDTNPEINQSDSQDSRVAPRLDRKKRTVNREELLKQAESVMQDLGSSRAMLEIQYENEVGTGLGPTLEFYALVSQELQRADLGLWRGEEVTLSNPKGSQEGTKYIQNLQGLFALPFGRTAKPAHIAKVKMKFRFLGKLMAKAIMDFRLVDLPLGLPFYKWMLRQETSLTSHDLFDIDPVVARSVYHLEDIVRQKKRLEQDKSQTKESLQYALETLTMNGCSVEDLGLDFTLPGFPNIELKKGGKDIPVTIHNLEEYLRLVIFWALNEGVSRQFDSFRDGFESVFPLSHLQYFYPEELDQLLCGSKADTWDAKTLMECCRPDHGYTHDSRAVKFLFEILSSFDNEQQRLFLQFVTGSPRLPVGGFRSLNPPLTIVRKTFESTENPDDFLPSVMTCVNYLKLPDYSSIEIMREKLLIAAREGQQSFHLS
UniProt Q13485: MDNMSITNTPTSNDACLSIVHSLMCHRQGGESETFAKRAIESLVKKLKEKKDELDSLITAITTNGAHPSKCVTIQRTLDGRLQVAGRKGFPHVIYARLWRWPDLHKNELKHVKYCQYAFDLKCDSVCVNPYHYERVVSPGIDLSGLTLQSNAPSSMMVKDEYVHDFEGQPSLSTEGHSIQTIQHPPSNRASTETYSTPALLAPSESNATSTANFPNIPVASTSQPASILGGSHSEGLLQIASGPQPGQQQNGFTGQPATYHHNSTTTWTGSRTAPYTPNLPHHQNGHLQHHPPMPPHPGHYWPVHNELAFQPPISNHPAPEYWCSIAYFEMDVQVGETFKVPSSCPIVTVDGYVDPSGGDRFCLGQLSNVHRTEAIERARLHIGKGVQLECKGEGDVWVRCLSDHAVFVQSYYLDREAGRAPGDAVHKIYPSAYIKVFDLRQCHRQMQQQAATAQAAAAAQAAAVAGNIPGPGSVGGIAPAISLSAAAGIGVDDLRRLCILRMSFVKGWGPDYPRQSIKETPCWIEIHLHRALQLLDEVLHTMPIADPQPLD

For “SMAD4, endogenous (from UniProt Q13485 1-552)”, which binding is on record?
Its binding is “binds”.
